Results taken from publication PMC12670160, “A drug-repurposing screen of FDA- and EMA-approved drugs identifies two NF-κB inhibitors active against eumycetoma” (Journal of Antimicrobial Chemotherapy, 2025).
Where a name gives a salt, the structure may show the parent alone. Hit rate of the full screen: of about 5,300 compounds, about 130 (2.5%) showed an effect of 50% or more. The list shows a part of the results.

system: M. mycetomatis strain mm55; settings: primary screen, metabolic activity vs growth control; 96 h, 2 µM; inhibitor

Structure (SMILES)	% viability [%]
CN(C)CCCN1c2ccccc2CCc2ccccc21 [ONC0000392, imipramine hydrochloride]	71.21
C[C@H]1COc2c(N3CCN(C)CC3)c(F)cc3c(=O)c(C(=O)O)cn1c23 [ONC0004298, levofloxacin]	65.49
CCc1cccc(CC)c1NC(=O)N1Cc2n[nH]c(NC(=O)c3ccc(N4CCN(C)CC4)cc3)c2C1 [ONC0004904, pha680632]	99.99
Fc1ccc([C@@H]2CCNC[C@H]2COc2ccc3c(c2)OCO3)cc1 [ONC0002311, paroxetine hydrochloride]	122.1
CN1CCN(c2ccc(OC(F)(F)F)c(Nc3ncc4c(n3)-c3c(c(C(N)=O)nn3CCO)CC4)c2)CC1 [ONC0001025, nms1286937]	100.9
CN(C/C=C/C#CC(C)(C)C)Cc1cccc2ccccc12 [ONC0004029, terbinafine hydrochloride]	75.14
O=c1[nH]cnc2c1ncn2[C@H]1CC[C@@H](CO)O1 [ONC0004781, didanosine videx]	107
CC(=O)OCC(=O)[C@@]1(O)[C@@H](C)CC2C3CCC4=CC(=O)C=C[C@]4(C)[C@@]3(F)[C@@H](O)C[C@@]21C (stereo partly shown) [ONC0004050, betamethasone acetate]	111.9
O=C(O)CCC(CP(=O)(O)O)C(=O)O (stereo not shown) [ONC0002514, pmpa]	59.56
Cc1cc(O)c2c(c1)C(=O)c1cc(O)cc(O)c1C2=O [ONC0004997, emodin]	57.84
Clc1ccc(Nc2nnc(Cc3ccncc3)c3ccccc23)cc1 [ONC0001243, vatalanib]	71.62
Cn1cc(-c2ccc3nnc(Sc4ccc5ncccc5c4)n3n2)cn1 [ONC0004359, sgx523]	107.9
C[C@@H]1CN(Cc2ncccn2)C[C@H]1c1nc2c(cnn2C2CCOCC2)c(=O)[nH]1 [ONC0001884, pf04447943]	99.81
C/C=C1\[C@H]2C=C(C)C[C@]1(N)c1ccc(=O)[nH]c1C2 [ONC0001211, huperzine a]	89.91
CN1CCN(C2CCN(C(=O)Nc3cc(Oc4ccc(NC(=O)C5(C(=O)Nc6ccc(F)cc6)CC5)c(F)c4)ccn3)CC2)CC1 [ONC0004478, golvatinib e7050]	152.8
FC(F)(F)c1ccc(Nc2ncnc3cc(-c4ncccc4C(F)(F)F)ccc23)cc1 [ONC0001942, mk2295]	91.37
CN(C)C(=O)Oc1cccc([N+](C)(C)C)c1 [ONC0000395, neostigmine bromide]	57.87
O=C(Oc1cccc2cccnc12)c1ccccc1 [ONC0003987, benzoxiquine]	75.23
CCOC(=O)[C@H](CCc1ccccc1)N[C@@H](C)C(=O)N1Cc2cc(OC)c(OC)cc2C[C@H]1C(=O)O [ONC0002079, moexipril hydrochloride]	73.52

3 structures out of the list, ordered by length of the SMILES, rising:
Structure (SMILES)	% viability [%]
O=C(Oc1cccc2cccnc12)c1ccccc1 [ONC0003987, benzoxiquine]	75.23
Clc1ccc(Nc2nnc(Cc3ccncc3)c3ccccc23)cc1 [ONC0001243, vatalanib]	71.62
Fc1ccc([C@@H]2CCNC[C@H]2COc2ccc3c(c2)OCO3)cc1 [ONC0002311, paroxetine hydrochloride]	122.1

Additional records:

Structure (SMILES)	% viability [%]
CN1CCC(OC(c2ccccc2)c2ccccc2)CC1 [ONC0000702, diphenylpyraline hydrochloride]	115.4
FC(F)(F)c1cccc(-c2noc(-c3cc(-c4ccccc4)c(C(F)(F)F)s3)n2)c1 [ONC0003601, sew2871]	86.58
COc1cc(/C=C/C(=O)CC(=O)/C=C/c2ccc(O)c(OC)c2)ccc1O [ONC0004898, curcumin]	124.2
N=C(N)NCCC[C@@H](N)C(=O)O [ONC0004802, larginine hcl]	91.52
O=C(O)CSCC(=O)NC1CCSC1=O (stereo not shown) [ONC0000438, erdosteine]	68.51
CC(C)(C)S(=O)(=O)N[C@H]1CC[C@H](C(=O)Nc2ccc(C(F)(F)F)cn2)CC1 [ONC0001819, velneperit]	85.83
[2H]C([2H])([2H])C(O)(CCO[C@@H](C)[C@H]1CC[C@H]2/C(=C/C=C3/C[C@@H](O)C[C@H](O)C3=C)CCC[C@]12C)C([2H])([2H])[2H] [ONC0001868, maxacalcitol]	112.3
CC(=O)N1CCC(NC(=O)c2ccc(F)cc2)CC1 [ONC0002309, fk962]	80.77
CN1C(=O)N(c2ccc(C#N)c(C(F)(F)F)c2)C(=O)[C@@]1(CO)c1ccccc1 [ONC0001091, glpg0492]	63.42
COC1/C=C/OC2(C)Oc3c(C)c(O)c4c(O)c(c(/C=N/N=C/N5CCCCC5)c(O)c4c3C2=O)NC(=O)/C(C)=C\C=C\C(C)C(O)C(C)C(O)C(C)C(OC(C)=O)C1C (stereo not shown) [ONC0003798, fce22250]	33.52
NC(C(=O)O)c1cc(O)cc(O)c1 (stereo not shown) [ONC0001409, dihydroxyphenylglycine]	59.13
NCC[C@H](O)C(=O)N[C@@H]1C[C@H](N)[C@@H](O[C@H]2O[C@H](CN)[C@@H](O)[C@H](O)[C@H]2O)[C@H](O)[C@H]1O[C@H]1O[C@H](CO)[C@@H](O)[C@H](N)[C@H]1O [ONC0000307, amikacin hydrate]	80.85
Cc1onc(O)c1C[C@H](N)C(=O)O [ONC0000721, ampas]	67.9
O=C1c2cccc3c2[C@H](CCC3)CN1[C@@H]1CN2CCC1CC2 [ONC0004369, palonosetron hcl]	123.7
[H]/N=C(\N/C(=N/[H])Nc1ccc(Cl)cc1)NC(C)C [ONC0002393, chloroguanide hydrochloride]	99.65
CCCCCCN(CCCCCC)C(=O)Cc1c(-c2ccc(Cl)cc2)[nH]c2ccc(Cl)cc12 [ONC0002645, fgin143]	79.58
COc1ccc(CCN(C)CCCOc2ccc(S(=O)(=O)c3c(C(C)C)c4ccccc4n3C)cc2)cc1OC [ONC0004278, sr33805 oxalate]	80
